Test results from paper PMC8699254.
No constants are given. Whether binding was seen depends on the method and setting. Binding seen in cells or lysates may run through a third protein. Some entries that bind do so weakly or less than the wild type. Sequences can lack the tags named with a protein.

The chains behind the UniProt entries cited, without tags or fusion partners.
UniProt Q9ULH1: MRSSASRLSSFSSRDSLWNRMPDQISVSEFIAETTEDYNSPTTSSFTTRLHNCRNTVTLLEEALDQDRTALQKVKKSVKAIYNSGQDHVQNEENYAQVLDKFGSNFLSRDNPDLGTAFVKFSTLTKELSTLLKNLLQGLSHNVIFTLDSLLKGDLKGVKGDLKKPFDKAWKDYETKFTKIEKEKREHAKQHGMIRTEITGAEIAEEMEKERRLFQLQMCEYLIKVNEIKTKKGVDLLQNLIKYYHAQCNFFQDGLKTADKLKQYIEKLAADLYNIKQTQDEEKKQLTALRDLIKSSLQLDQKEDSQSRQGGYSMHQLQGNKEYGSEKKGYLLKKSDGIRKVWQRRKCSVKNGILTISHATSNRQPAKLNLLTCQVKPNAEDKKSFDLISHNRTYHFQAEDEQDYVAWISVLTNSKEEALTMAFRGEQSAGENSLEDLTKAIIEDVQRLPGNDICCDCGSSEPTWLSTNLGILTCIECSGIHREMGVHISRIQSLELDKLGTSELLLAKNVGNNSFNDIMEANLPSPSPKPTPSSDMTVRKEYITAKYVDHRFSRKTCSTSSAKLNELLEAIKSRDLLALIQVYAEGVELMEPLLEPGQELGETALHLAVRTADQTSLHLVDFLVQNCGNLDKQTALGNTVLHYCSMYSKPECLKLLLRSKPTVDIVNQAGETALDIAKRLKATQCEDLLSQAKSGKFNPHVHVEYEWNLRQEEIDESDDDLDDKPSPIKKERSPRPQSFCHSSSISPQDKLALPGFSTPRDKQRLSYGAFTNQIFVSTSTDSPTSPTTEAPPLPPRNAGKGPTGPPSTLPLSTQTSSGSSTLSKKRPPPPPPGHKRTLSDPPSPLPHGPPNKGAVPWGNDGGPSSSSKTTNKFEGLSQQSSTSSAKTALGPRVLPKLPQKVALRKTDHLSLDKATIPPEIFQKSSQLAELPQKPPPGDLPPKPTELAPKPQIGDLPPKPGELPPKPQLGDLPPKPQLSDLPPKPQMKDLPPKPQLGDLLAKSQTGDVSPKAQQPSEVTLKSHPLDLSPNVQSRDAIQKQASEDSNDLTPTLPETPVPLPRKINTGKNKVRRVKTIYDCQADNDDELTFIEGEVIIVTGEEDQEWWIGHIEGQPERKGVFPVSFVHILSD

Legend:
[1] = biological target: T1, Strep-tagged PEAK3 (ST-PEAK3), wild type (human) (UniProt Q6ZS72); assay: pull-down; ST-PEAK3 captured on Strep-Tactin magnetic beads from lysates of U2OS cells stably expressing ST-PEAK3 (or empty vector) and transfected with FLAG-PEAK3 constructs; western blot (n = 2)
T1 sequence: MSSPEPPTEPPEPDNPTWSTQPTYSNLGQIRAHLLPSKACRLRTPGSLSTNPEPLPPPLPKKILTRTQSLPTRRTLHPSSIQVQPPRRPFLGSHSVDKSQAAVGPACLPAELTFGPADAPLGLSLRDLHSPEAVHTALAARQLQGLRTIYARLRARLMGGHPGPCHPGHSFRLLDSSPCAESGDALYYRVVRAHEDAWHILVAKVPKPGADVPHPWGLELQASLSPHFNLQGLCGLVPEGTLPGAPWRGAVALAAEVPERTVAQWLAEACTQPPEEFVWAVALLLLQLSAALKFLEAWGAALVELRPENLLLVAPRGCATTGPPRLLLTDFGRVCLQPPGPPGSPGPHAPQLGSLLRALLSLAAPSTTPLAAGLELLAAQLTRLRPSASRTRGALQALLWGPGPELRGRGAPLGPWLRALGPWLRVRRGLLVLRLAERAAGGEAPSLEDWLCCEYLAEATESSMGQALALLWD

[2] = biological target: ADP-ribosylation factor (ARF) GTPase-activating protein ASAP1 (human (endogenous in U2OS, HeLa, THP1, HEK293T)) (UniProt Q9ULH1); assay: co-IP; endogenous ASAP1 immunoprecipitated (anti-ASAP1, Bethyl) from THP1 cells expressing ST-PEAK3, treated or not with pervanadate or PYK2 inhibitor; blot for ST-PEAK3 (n = 2)
[3] = biological target: T2, Strep-tagged PEAK3 (ST-PEAK3), wild type (human), Q6ZS72; assay: pull-down; ST-PEAK3 (WT or A436E) pulled down from lysates of U2OS (Figure 5b) and THP1 cells (Figure 5c, 6c), western blot of endogenous partners; THP1 cells also treated or not with pervanadate (0.1 uM, 15 min) or PYK2 inhibitor (1 uM, 2 h); settings: remark: other sources report otherwise
T2 chain: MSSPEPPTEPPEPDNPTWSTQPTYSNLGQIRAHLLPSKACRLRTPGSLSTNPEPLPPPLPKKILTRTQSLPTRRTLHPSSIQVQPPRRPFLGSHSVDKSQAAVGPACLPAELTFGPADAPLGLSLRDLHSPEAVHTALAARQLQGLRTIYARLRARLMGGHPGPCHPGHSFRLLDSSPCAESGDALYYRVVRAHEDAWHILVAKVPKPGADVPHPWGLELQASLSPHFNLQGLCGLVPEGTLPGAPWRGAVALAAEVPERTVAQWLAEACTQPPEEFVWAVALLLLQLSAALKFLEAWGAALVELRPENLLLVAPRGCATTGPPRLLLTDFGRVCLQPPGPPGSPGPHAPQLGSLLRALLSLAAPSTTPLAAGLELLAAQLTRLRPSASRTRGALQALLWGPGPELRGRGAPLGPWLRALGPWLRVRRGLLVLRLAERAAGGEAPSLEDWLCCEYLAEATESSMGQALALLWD

B1: FLAG-PEAK3, wild type (protein, UniProt Q6ZS72 1-473)
chain: MSSPEPPTEPPEPDNPTWSTQPTYSNLGQIRAHLLPSKACRLRTPGSLSTNPEPLPPPLPKKILTRTQSLPTRRTLHPSSIQVQPPRRPFLGSHSVDKSQAAVGPACLPAELTFGPADAPLGLSLRDLHSPEAVHTALAARQLQGLRTIYARLRARLMGGHPGPCHPGHSFRLLDSSPCAESGDALYYRVVRAHEDAWHILVAKVPKPGADVPHPWGLELQASLSPHFNLQGLCGLVPEGTLPGAPWRGAVALAAEVPERTVAQWLAEACTQPPEEFVWAVALLLLQLSAALKFLEAWGAALVELRPENLLLVAPRGCATTGPPRLLLTDFGRVCLQPPGPPGSPGPHAPQLGSLLRALLSLAAPSTTPLAAGLELLAAQLTRLRPSASRTRGALQALLWGPGPELRGRGAPLGPWLRALGPWLRVRRGLLVLRLAERAAGGEAPSLEDWLCCEYLAEATESSMGQALALLWD
binding [1]: binds

B2: Strep-tagged PEAK3 (ST-PEAK3), wild type (protein, UniProt Q6ZS72 1-473)
chain: MSSPEPPTEPPEPDNPTWSTQPTYSNLGQIRAHLLPSKACRLRTPGSLSTNPEPLPPPLPKKILTRTQSLPTRRTLHPSSIQVQPPRRPFLGSHSVDKSQAAVGPACLPAELTFGPADAPLGLSLRDLHSPEAVHTALAARQLQGLRTIYARLRARLMGGHPGPCHPGHSFRLLDSSPCAESGDALYYRVVRAHEDAWHILVAKVPKPGADVPHPWGLELQASLSPHFNLQGLCGLVPEGTLPGAPWRGAVALAAEVPERTVAQWLAEACTQPPEEFVWAVALLLLQLSAALKFLEAWGAALVELRPENLLLVAPRGCATTGPPRLLLTDFGRVCLQPPGPPGSPGPHAPQLGSLLRALLSLAAPSTTPLAAGLELLAAQLTRLRPSASRTRGALQALLWGPGPELRGRGAPLGPWLRALGPWLRVRRGLLVLRLAERAAGGEAPSLEDWLCCEYLAEATESSMGQALALLWD
binding [2]: binds

B3: CRKII, P46108-1 1-304 (protein)
chain: MAGNFDSEERSSWYWGRLSRQEAVALLQGQRHGVFLVRDSSTSPGDYVLSVSENSRVSHYIINSSGPRPPVPPSPAQPPPGVSPSRLRIGDQEFDSLPALLEFYKIHYLDTTTLIEPVSRSRQGSGVILRQEEAEYVRALFDFNGNDEEDLPFKKGDILRIRDKPEEQWWNAEDSEGKRGMIPVPYVEKYRPASASVSALIGGNQEGSHPQPLGGPEPGPYAQPSVNTPLPNLQNGPIYARVIQKRVPNAYDKTALALEVGELVKVTKINVSGQWEGECNGKRGHFPFTHVRLLDQQNPDEDFS
binding [3]: no binding
